The values that follow come from patent US20240108739A1 (PHI PHARMA SA, priority 2020, published 2024).

The data set in a line: general procedure: Fmoc solid-phase peptide synthesis; Rink Amide resin (capacity: 0.18-0.22 mmol/g). The following applies: conjugation step, LC-MS purity analysis of lyophilized final products.
For the substance (51-hS)2KS-(51-hS)-KC-Mal-Biotin, the “final LC-MS purity” value is 55.798%.

Consider (51-hS)2-KC-Mal-Biotin, for which the “final LC-MS purity” value was 91.318%.

On to [(51-hS)2KS]2KC-Mal-Val-Cit-Azonafide, for which the “final LC-MS purity” value came out at 94.157%.

As to (51-hS)2KS-(51-hS)KC-Mal-Alexa488, the “final LC-MS purity” value is on record as 99.707%.

Take (51-hS)2KC-Mal-Val-Cit-Azonafide: the “final LC-MS purity” value worked out at 98.462%.

Regarding “(51-hS)2KS-(51-hS)KC-Mal-Val-Cit-Azonafide”, the “final LC-MS purity” value stood at 95.575%.

For [(51-hS)2KS]2KC-Mal-Alexa488, the “final LC-MS purity” value worked out at 99.647%.

Regarding [(51-hS)2KS]2-KC-Mal-Biotin, the “final LC-MS purity” value came to 89.360%.

Turning to (51-hS)2KC-Mal-Alexa488, the “final LC-MS purity” value was 96.165%.
